Values of other authors in patent publication US20170023547A1, “CHEMICAL THREAT ASSESSMENT BY RAPID MOLECULAR PHENOTYPING” (Vanderbilt University, priority 2015, published 2017).

Tested on: A549 cells
Conditions: Yang et al., PloS One 8, e65309 (2013); cited from earlier work

For `N.N.[Cl][Pt][Cl]` [cisplatin], the IC50 is listed as 18 to 64 µM.
